Data as given in PubChem BioAssay AID1259272 (Sanger Institute, 2017)

- Screen: 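Kinase knock-downs lethal to colorectal cancer cells, with or without anchor drugs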 (primary screen)
- Cell system: SW1116 human colorectal cancer cells
- Reagents: siRNA pool against human genes
- Challenge: anchor drugs BYL719 (1 µM), cetuximab (5 µg/ml) or trametinib (10 nM), or DMSO vehicle; exposure length not given
- Measured: 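Cell survival as a fraction of wells given a non-targeting pool, averaged over replicates; robust z-score without drug; synergy score for each of BYL719, cetuximab and trametinib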
- Direction: viability z-score, no drug: higher = more cells remaining; strongly negative means essential gene; viability, no drug: higher = more viable cells
- Units: viability, no drug in fraction of control
- Call rule: 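a robust z-score under -3 with siRNA and no drug marks the gene essential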
- Meaning of the calls: active = essential (knock-down alone); inactive = no change
Shown is a random part of 794 deposited reagents. Over the whole deposit, 7 (0.88%) were called active. 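Essential calls reflect knock-down without drug only, not synergy with drugs; drug exposure length not given.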 Viability is capped at 1. Further read-outs or replicates are left out here. The record does not give: the amount of reagent, the time to read-out.

With CREBBP (GeneID 1387), how do the results read?
viability z-score, no drug: -0.433; viability, no drug: 0.864; outcome: inactive

For RSKR (GeneID 124923), what does the deposit list?
viability z-score, no drug: 0.842; viability, no drug: 1; outcome: inactive

Which result is listed for PLK1 (GeneID 5347)?
viability z-score, no drug: -4.26; viability, no drug: 0.457; outcome: active

What is on record for ADK (GeneID 132)?
viability z-score, no drug: 0.0278; viability, no drug: 0.913; outcome: inactive

Which result is listed for XYLB (GeneID 9942)?
viability z-score, no drug: -1.24; viability, no drug: 0.779; outcome: inactive

For TP53 (GeneID 7157), what was measured?
viability z-score, no drug: -1.36; viability, no drug: 0.765; outcome: inactive

What is on record for NF1 (GeneID 4763)?
viability z-score, no drug: -0.463; viability, no drug: 0.861; outcome: inactive

For IRAK1 (GeneID 3654), how do the results read?
viability z-score, no drug: 0.842; viability, no drug: 1; outcome: inactive

What did the screen give for TESK2 (GeneID 10420)?
viability z-score, no drug: 0.842; viability, no drug: 1; outcome: inactive

With JAK2 (GeneID 3717), how do the results read?
viability z-score, no drug: -3.05; viability, no drug: 0.586; outcome: active

How did the screen score ACO1 (GeneID 48)?
viability z-score, no drug: -1.8; viability, no drug: 0.719; outcome: inactive

Which result is listed for PHKB (GeneID 5257)?
viability z-score, no drug: 0.842; viability, no drug: 1; outcome: inactive

Active calls, among the entries above:
PLK1 (GeneID 5347) → viability z-score, no drug = -4.26; viability, no drug = 0.457; outcome = active
JAK2 (GeneID 3717) → viability z-score, no drug = -3.05; viability, no drug = 0.586; outcome = active
